Measurements taken from US20050142626A1, “Diagnostic methods for asthma” (priority 1999, published 2005).

Key:
Type in all cases: in vivo, Human
[1] = Plasma 3-bromotyrosine in acute asthma exacerbation and following steroid therapy; details: i.v. then oral steroids over 2 weeks
[2] = 3-Bromotyrosine and 3-chlorotyrosine in bronchoalveolar lavage after segmental antigen challenge; details: BAL
[3] = 3-Bromotyrosine in bronchoalveolar lavage of asthmatic vs non-asthmatic intensive care patients (GC/MS); details: BAL protein, FIG. 4
[4] = 48 h after ragweed pollen challenge

In the case of `N[C@@H](Cc1ccc(O)c(Br)c1)C(=O)O` (single isomer, unassigned) [3-bromotyrosine], the “content of 3-bromotyrosine in plasma following steroid therapy” value [1] is reported as “decreased significantly”, the “level following antigen challenge in asthmatic individuals” value [2, 4] is reported as “increased significantly” and the “level following antigen challenge in non-asthmatic subjects” value [2, 4] is reported as “no increase”. For the same molecule, the “increase in baseline levels in mild asthmatic subjects” value ([2]; baseline, asthmatic vs non-asthmatic, FIG. 5) was 2 fold and the “levels of 3-bromotyrosine in BAL of asthmatic subjects relative to non-asthmatic individuals” value [3] was “over 100 fold”.
